The text below walks through data of patent publication US20100279941A1, “CD36 MODULATION AND USES THEREOF” (priority 2009, published 2010).

The data set is described as follows: Body and left ventricular weights after transient LCAL. Type of data set: in vivo, mice. The settings on record: EP 80317 300 μg/kg/day s.c.; 48 hours after LCAL; effect in words.

On to “HAIC-2MeDTrp-DLys-Trp-DPhe-Lys-NH2 [EP 80317]”, for which the “BW (body weight)” value was “did not modulate” and the LV/BW ratio result is given as “did not modulate”.
